These are yes or no findings as the source states them, for the method shown. Binding seen in cells or lysates may run through a third protein. Some binding calls cover weakened binding; strength is not graded here.
T1: prosaposin (PSAP) (UniProt P07602)
T1 sequence (looked up): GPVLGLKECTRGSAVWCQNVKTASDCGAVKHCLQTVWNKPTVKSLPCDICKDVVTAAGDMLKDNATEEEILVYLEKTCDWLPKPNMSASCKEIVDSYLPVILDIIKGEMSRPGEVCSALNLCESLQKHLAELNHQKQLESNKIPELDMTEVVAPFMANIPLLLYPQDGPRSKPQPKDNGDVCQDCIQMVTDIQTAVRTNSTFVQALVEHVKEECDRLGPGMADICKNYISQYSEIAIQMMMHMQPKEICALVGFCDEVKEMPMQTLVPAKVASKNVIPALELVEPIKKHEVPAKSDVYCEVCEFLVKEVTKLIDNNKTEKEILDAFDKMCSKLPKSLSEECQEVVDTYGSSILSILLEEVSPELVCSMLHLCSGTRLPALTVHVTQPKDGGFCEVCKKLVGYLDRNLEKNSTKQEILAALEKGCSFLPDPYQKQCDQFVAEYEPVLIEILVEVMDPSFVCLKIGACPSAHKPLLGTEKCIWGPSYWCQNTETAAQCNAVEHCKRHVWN

Protein sequences, listed by entry. Tags and fused reporters are not part of them. Lines headed by an entry give the natural chain unless they say otherwise; changes in a name come on top.
UniProt P07478: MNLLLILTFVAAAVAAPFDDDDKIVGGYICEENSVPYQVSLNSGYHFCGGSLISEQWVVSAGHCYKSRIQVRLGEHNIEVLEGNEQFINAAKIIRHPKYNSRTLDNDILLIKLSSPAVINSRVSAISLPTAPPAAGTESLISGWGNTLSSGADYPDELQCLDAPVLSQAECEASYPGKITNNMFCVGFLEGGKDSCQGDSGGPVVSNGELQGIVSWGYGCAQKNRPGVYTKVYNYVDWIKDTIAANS


What was measured:
prosaposin (PSAP) [1] = target: T1, prosaposin (PSAP); test: co-immunoprecipitation of LRP1 peptides with PSAP
[2] = target: Protease, serine 2 (PRSS2) (Homo sapiens (Human)) (UniProt P07478); test: co-immunoprecipitation of LRP1 peptides with PRSS2
[3] = target: Protease, serine 2 (PRSS2) (Homo sapiens (Human)) (UniProt P07478); test: co-immunoprecipitation (annotation in the peptide table)
prosaposin (PSAP) [4] = target: T1, prosaposin (PSAP); test: as above

Row | binding (prosaposin (PSAP) [1]) | binding [2] | binding [3] | binding (prosaposin (PSAP) [4]) | Binder
1 | binds | binds | binds | binds | FICGCVEGYLLQPDNRSCKAKN [Peptide 13 (amino acids 151-172 of LRP1)]
2 | binds | binds | binds | binds | YGTCSQLCTNTDGSFICGCVEGYLL [Peptide 12 (amino acids 140-164 of LRP1)]
